We go through one molecule from PMC5566180.

These are yes or no findings as the source states them, for the method shown. In cells and extracts the contact can be indirect. Some binding calls cover weakened binding; strength is not graded here. Sequences can lack the tags named with a protein.

The target in this experiment is T1, LOXL3-flag (murine lysyl oxidase-like 3) (mouse) (UniProt Q9Z175).
T1 sequence: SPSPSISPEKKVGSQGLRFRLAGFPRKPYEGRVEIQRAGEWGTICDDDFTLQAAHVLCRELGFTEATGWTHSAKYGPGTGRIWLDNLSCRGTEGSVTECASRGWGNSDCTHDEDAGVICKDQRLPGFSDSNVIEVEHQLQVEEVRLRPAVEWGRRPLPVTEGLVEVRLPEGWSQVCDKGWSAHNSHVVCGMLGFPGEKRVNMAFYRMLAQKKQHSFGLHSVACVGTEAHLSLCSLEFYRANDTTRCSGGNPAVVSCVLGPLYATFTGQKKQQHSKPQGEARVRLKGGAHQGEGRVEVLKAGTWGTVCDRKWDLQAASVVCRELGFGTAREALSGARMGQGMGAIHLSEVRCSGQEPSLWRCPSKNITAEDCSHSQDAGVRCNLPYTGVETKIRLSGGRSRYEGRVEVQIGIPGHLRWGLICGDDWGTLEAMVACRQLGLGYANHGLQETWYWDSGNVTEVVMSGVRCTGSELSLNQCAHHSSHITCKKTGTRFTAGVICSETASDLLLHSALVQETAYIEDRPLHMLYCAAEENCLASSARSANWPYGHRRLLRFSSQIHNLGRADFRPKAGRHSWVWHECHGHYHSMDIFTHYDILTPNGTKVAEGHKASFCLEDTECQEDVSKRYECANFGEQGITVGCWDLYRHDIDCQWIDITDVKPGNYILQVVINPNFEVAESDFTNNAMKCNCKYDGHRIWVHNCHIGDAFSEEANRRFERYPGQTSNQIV
In words: co-IP; COS7 cells cotransfected; 1 mg lysate (50 mM Tris-HCl pH 7.4-7.5, 300 mM NaCl, 1% Triton X-100) on Anti-FlagM2 affinity gel overnight; Flag-tagged protein as bait; eluted by boiling in SDS lysis buffer, Western blot.

B1: His-tagged full-length murine APMAP_E1 (adipocyte plasma membrane-associated protein) (protein, UniProt Q9D7N9 1-415)
chain: MSEADGLRQRRPLRPQVVTDDGQVPEVKEGSSFSGRVFRMTFLMLAVSLAIPLLGAMMLLESPIDPQSFSFKEPPFMFGVLHPNTKLRQAERLFENQLSGPESIVNIGDVLFTGTADGRVVKLENGEIETIARFGSGPCKTRDDEPTCGRPLGIRAGPNGTLFVVDAYKGLFEVNPQKRSVKLLLSSETPIEGKKMSFVNDLTVTRDGRKIYFTDSSSKWQRRDYLLLVMEATDDGRLLEYDTVTKEVKVLLDQLQFPNGVQLSPEEDFVLVAETTMARIRRVYVSGLMKGGADMFVENMPGFPDNIRPSSSGGYWVAAATIRANPGFSMLDFLSDKPFIKRMIFKMFSQETVMKFVPRYSLVLEVSDSGAFRRSLHDPDGQVVTYVSEAHEHDGYLYLGSFRSPFICRLSLQSI
In the case of B1, the binding result is “binds”.
